Laboratory results published in article PMC5974482.
No constants are given. Whether binding was seen depends on the method and setting. Binding seen in cells or lysates may run through a third protein. Some entries that bind do so weakly or less than the wild type.

Chains of the proteins cited; added tags and fusions are not shown.
UniProt Q99873: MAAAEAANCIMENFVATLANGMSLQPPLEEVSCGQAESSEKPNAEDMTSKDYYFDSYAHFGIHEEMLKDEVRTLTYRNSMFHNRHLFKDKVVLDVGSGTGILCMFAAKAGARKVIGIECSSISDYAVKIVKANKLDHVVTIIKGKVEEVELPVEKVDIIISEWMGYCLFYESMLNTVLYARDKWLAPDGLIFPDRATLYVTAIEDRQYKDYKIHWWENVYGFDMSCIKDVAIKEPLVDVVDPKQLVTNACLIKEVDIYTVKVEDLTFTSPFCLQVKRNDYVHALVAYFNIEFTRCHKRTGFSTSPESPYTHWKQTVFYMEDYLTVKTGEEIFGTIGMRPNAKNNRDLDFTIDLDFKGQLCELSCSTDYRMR
UniProt A5YKK6: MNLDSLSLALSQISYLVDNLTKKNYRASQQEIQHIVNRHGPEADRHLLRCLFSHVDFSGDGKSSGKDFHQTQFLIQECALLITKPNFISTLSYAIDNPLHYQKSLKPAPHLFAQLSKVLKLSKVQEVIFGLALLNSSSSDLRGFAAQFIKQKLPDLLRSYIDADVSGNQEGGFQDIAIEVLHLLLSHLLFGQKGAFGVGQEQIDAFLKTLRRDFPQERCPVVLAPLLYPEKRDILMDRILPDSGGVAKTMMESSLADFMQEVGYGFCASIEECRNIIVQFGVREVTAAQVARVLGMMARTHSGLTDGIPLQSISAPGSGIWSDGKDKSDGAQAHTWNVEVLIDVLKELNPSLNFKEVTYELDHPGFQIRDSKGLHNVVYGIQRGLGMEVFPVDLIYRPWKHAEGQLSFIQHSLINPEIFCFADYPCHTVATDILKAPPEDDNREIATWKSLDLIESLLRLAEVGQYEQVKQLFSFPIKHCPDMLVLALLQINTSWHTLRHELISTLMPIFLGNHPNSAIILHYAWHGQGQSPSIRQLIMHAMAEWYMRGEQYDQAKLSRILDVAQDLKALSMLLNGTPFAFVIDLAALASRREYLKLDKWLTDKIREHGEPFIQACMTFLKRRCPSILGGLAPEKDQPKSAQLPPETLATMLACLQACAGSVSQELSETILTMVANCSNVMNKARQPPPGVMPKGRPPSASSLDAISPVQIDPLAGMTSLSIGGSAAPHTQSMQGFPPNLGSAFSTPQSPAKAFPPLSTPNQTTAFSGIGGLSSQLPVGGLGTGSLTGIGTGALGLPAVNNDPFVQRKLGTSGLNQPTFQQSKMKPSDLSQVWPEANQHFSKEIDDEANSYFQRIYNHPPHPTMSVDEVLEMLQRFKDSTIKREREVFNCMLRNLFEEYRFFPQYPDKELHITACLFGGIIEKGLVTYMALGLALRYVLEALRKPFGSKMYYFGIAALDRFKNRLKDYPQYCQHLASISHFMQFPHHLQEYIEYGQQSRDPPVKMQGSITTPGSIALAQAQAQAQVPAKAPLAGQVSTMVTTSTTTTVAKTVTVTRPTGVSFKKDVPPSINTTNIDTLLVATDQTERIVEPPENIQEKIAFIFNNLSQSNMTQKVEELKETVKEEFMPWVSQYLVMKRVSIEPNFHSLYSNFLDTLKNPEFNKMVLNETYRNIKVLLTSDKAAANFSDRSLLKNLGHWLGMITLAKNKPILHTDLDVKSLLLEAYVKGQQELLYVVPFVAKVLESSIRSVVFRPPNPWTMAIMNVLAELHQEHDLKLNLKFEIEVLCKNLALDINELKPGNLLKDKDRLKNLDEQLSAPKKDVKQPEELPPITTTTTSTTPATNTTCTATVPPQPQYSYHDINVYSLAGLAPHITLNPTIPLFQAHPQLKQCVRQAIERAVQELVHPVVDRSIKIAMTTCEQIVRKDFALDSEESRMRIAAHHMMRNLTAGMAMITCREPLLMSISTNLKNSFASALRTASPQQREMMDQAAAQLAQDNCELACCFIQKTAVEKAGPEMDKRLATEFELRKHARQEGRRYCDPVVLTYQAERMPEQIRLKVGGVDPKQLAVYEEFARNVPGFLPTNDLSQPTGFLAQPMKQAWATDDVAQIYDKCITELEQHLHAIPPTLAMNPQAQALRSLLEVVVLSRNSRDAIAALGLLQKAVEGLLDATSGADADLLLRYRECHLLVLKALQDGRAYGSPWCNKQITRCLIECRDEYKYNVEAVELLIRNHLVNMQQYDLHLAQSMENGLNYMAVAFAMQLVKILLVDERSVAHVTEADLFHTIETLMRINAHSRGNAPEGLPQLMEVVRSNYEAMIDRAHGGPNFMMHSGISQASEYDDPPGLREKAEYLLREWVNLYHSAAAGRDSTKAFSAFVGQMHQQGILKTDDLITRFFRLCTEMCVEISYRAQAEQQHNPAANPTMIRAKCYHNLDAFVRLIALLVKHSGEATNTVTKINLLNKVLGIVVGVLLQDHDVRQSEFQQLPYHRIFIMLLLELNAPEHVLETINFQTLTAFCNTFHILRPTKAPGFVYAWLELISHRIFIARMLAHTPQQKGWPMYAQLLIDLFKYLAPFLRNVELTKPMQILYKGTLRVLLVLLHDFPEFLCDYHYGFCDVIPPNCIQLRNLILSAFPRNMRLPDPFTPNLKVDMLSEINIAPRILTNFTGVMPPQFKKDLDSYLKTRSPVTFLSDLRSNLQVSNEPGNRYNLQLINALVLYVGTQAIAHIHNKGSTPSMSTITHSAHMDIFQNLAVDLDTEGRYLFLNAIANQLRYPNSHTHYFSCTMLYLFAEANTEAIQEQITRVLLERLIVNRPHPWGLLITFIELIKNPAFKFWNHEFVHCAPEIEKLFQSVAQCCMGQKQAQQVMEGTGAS
UniProt Q9C0C2: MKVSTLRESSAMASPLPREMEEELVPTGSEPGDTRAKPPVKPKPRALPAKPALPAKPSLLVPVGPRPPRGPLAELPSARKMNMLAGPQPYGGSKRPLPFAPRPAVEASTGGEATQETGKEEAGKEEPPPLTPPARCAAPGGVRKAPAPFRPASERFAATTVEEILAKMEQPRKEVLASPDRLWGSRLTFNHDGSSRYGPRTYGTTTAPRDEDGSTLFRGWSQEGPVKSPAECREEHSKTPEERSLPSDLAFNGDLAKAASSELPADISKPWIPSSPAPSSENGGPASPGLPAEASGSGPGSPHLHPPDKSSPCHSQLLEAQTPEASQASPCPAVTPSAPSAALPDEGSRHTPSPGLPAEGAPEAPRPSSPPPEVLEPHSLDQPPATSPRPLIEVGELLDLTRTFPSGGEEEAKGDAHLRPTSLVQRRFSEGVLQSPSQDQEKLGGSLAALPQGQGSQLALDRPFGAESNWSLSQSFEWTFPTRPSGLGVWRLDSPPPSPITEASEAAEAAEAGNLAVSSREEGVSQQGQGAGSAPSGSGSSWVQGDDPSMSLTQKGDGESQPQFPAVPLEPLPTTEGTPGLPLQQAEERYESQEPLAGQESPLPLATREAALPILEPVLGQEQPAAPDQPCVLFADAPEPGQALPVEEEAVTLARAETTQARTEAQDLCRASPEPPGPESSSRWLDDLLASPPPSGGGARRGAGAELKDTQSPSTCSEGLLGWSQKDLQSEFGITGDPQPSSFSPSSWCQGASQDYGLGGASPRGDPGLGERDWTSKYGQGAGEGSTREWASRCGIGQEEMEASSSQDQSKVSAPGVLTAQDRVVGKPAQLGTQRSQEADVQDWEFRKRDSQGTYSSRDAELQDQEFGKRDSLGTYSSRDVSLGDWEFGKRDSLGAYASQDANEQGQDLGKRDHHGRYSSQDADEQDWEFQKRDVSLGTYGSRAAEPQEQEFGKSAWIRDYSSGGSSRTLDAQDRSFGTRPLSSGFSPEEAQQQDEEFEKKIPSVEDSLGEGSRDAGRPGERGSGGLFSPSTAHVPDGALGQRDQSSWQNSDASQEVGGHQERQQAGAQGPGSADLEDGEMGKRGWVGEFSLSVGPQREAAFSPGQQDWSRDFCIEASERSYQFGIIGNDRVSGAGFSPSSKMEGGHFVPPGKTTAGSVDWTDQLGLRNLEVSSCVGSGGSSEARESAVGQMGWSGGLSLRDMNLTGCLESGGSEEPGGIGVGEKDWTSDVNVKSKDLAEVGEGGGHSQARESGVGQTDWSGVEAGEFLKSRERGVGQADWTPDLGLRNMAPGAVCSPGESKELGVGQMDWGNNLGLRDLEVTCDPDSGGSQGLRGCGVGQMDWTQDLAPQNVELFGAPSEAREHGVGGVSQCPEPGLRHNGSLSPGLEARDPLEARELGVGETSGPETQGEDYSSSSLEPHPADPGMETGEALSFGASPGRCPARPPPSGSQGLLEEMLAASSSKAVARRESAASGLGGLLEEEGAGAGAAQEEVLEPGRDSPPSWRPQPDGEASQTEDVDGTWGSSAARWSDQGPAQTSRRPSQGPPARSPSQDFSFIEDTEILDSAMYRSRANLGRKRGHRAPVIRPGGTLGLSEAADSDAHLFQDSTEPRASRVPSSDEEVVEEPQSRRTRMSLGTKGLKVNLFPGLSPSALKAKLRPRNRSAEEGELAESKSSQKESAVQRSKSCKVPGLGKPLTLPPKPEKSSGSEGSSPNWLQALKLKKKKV
UniProt P04491: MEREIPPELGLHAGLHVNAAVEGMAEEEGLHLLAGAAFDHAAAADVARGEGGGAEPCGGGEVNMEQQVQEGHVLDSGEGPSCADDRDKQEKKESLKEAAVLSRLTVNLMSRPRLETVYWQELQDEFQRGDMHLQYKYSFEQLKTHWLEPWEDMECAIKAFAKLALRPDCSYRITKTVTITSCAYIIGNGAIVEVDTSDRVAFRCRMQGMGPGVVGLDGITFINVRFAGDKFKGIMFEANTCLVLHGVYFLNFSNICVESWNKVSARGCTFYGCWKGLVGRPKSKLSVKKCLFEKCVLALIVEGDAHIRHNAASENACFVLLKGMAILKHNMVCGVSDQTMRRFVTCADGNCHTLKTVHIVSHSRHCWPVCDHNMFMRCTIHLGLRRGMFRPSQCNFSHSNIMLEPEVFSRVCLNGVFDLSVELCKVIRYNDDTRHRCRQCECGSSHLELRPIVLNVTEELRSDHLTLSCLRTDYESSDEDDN
UniProt P03243: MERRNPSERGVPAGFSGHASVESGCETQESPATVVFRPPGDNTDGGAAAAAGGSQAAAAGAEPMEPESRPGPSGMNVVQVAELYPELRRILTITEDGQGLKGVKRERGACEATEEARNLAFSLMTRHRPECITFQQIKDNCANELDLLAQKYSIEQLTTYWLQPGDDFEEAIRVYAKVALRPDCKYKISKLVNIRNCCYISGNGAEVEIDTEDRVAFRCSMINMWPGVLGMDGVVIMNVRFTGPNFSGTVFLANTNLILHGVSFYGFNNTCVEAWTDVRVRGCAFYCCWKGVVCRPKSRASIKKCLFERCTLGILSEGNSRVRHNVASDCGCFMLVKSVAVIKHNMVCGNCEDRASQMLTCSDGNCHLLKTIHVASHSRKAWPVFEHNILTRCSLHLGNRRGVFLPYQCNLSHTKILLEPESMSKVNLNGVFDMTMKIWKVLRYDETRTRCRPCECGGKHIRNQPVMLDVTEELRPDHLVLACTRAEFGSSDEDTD

Assays:
GST-PRMT1 = GST-PRMT1 (UniProt Q99873); assay: pull-down; only the target purified
[1] = molecular target: CNOT1 (human (endogenous in HeLa, Ad5E1HEK293, Ad12E1HER2)) (UniProt A5YKK6); assay: co-IP; Ad5E1HEK293 and Ad12E1HER2 lysates (500 ug total protein) immunoprecipitated with antibody against CNOT1 (controls: collagen IV antibody, IgG); Western blot for Ad5E1B55K and Ad12E1B55K
[2] = molecular target: Tankyrase 1 binding protein 1 (TNKS1BP1, Tab182), endogenous (human (endogenous in Ad5E1HEK293, Ad12E1HER2, HeLa, HEK293FT)) (UniProt Q9C0C2); assay: co-IP
[3] = molecular target: Adenovirus serotype 12 early region 1B55K protein (Ad12E1B55K) (adenovirus serotype 12) (UniProt P04491); assay: co-IP
[4] = molecular target: Adenovirus serotype 5 early region 1B55K protein (Ad5E1B55K) (adenovirus serotype 5) (UniProt P03243); assay: co-IP

| Substance | binding (GST-PRMT1) | binding [1] | binding [2] | binding [3] | binding [4] |
| --- | --- | --- | --- | --- | --- |
| Adenovirus serotype 5 early region 1B55K protein (Ad5E1B55K) (from UniProt P03243 1-496) | no binding | binds | binds |  |  |
| Adenovirus serotype 12 early region 1B55K protein (Ad12E1B55K) (from UniProt P04491 1-482) | no binding | binds | binds |  |  |
| Tankyrase 1 binding protein 1 (TNKS1BP1, Tab182), endogenous (from UniProt Q9C0C2 1-1729) |  |  |  | binds | binds |
